The values below come from patent US20070060573A1, “Acyltryptophanols” (priority 2005, published 2007).

Chains of the proteins cited; added tags and fusions are not shown. Residues count along the entry.
UniProt P23945, 18-695 limits assumed: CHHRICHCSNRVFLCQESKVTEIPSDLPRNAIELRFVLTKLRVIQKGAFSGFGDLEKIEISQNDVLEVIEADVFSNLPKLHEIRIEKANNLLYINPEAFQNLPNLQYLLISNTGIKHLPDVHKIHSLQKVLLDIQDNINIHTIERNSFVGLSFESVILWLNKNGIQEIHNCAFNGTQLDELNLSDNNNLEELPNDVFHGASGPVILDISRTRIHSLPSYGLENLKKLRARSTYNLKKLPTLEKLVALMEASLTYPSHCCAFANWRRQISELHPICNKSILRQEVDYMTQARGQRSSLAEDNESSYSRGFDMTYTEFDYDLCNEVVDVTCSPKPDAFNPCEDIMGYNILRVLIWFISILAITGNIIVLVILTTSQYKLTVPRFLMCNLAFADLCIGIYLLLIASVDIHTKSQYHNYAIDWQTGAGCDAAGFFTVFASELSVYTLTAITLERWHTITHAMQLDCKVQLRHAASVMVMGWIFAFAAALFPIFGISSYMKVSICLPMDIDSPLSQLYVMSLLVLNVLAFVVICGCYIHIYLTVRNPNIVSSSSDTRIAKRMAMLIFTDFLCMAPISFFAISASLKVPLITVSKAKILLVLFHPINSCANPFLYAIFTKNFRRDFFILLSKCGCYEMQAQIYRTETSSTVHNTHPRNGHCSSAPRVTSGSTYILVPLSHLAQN

The experiment addresses human FSH receptor (Homo sapiens, UniProt P23945). The experiment is described as follows: HTRF assay for measuring cAMP in cells, FSH-antagonistic effect (in the presence of hFSH). The settings on record: read-out: IC50 (FSH-antagonistic effect in the HTRF assay), hFSHR clone 16 cells (CHO cells stably transfected with the human FSH receptor), in the presence of 1e-9 mol/l hFSH, 37° C. for 2 h.
Source text: […]

The structures given here were assigned with low confidence; some may be wrong.

With `COc1ccc(-c2cc(C(=O)N[C@@H](CO)Cc3c[nH]c4ccccc34)c3ccccc3n2)cc1OC`, the IC50 was determined as 9 µM.
